{"source": "PubChem BioAssay AID686937 (Drosophila RNAi Screening Center, 2013)", "aim": "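Genes in the fly needed for secretion of protein constitutively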 (primary screen)", "cell system": "Drosophila S2 cells expressing secreted horseradish peroxidase", "reagent": "long dsRNA against Drosophila genes", "duration": "about 5.5 days (5 days dsRNA, then 12 h reporter induction)", "conditions": "reporter expression induced after 5 days of dsRNA, read 12 h later; inducer not stated", "measurement": "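Chemiluminescent measurement of peroxidase in the medium 12 h after reporter induction, following 5 days of dsRNA, given as a z-score per plate; higher means more secretion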", "reading the numbers": "z-score: higher = more reporter secreted into medium", "note": "In all, the deposit lists about 23,000 reagents; this is a random part of those with a known target gene and a result. 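Reduced-secretion tags in replicate 1 do not always agree with the z-scores; no criterion for assigning the tags was given.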 The numbers tell different reagents against one gene apart. Not all columns of the deposit are shown. Not given: the amount of reagent."}
{"predicted target": "CG14187", "reagent": 1, "z-score, replicate 1": 0.31}
{"predicted target": "Nak (Numb-associated kinase)", "reagent": 1, "z-score, replicate 1": 0.38}
{"predicted target": "CG12693", "reagent": 1, "z-score, replicate 1": 0.2}
{"predicted target": "ncm (nucampholin)", "reagent": 1, "z-score, replicate 1": -3.47}
{"predicted target": "Clc (Clathrin light chain)", "reagent": 1, "z-score, replicate 1": 0.33}
{"predicted target": "Aasdh (Aminoadipate-semialdehyde dehydrogenase)", "reagent": 1, "z-score, replicate 1": 0.71}
{"predicted target": "Muc30E (Mucin 30E)", "reagent": 1, "z-score, replicate 1": 0.41}
{"predicted target": "Dd (Dullard)", "reagent": 1, "z-score, replicate 1": 0.22}
{"predicted target": "NimB4 (Nimrod B4)", "reagent": 1, "z-score, replicate 1": 0.39}
{"predicted target": "Brca2 (BRCA2, DNA repair associated)", "reagent": 1, "z-score, replicate 1": 0.6}
{"predicted target": "Brca2 (BRCA2, DNA repair associated)", "reagent": 2, "z-score, replicate 1": 0.4}
{"predicted target": "CG14989", "reagent": 1, "z-score, replicate 1": 0.49}
{"predicted target": "stum (stumble)", "reagent": 1, "z-score, replicate 1": 0.18}
{"predicted target": "stum (stumble)", "reagent": 2, "z-score, replicate 1": 0.22}
{"predicted target": "CG8490", "reagent": 1, "z-score, replicate 1": 0.22}
{"predicted target": "CG7049", "reagent": 1, "z-score, replicate 1": 0.05}
{"predicted target": "PpV (Protein phosphatase V)", "reagent": 1, "z-score, replicate 1": -0.13}
{"predicted target": "Ddx1 (Dead-box-1)", "reagent": 1, "z-score, replicate 1": 0.2}
{"predicted target": "Camta (Calmodulin-binding transcription activator)", "reagent": 1, "z-score, replicate 1": 0.27}
{"predicted target": "Camta (Calmodulin-binding transcription activator)", "reagent": 2, "z-score, replicate 1": 0.39}
{"predicted target": "Camta (Calmodulin-binding transcription activator)", "reagent": 3, "z-score, replicate 1": 0.35}
{"predicted target": "Gbp1 (Growth-blocking peptide 1)", "reagent": 1, "z-score, replicate 1": 0.53}
{"predicted target": "MP1 (Melanization Protease 1)", "reagent": 1, "z-score, replicate 1": 0.38}
{"predicted target": "CG13043", "reagent": 1, "z-score, replicate 1": 0.08}
{"predicted target": "Cdc6 (Cell division cycle 6)", "reagent": 1, "z-score, replicate 1": -0.2}
{"predicted target": "Polr2E (RNA polymerase II, I and III subunit E)", "reagent": 1, "z-score, replicate 1": -4.23}
{"predicted target": "Krn (Keren)", "reagent": 1, "z-score, replicate 1": 0.46}
